# PubChem BioAssay AID1259308 – NCATS – 2017
# Test: 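Knock-downs that increase output of a recombinant reporter protein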 (primary screen)
# Cell system: human HEK293 embryonic kidney cells stably expressing firefly luciferase (HEK-CMV-Luc2-Hygro)
# Reagent: single siRNA against human genes, 0.8 pmol siRNA per well
# Duration: 72 h
# Read-out: 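Reporter luminescence and viable-cell signal on separate replicate plates, given as percent of non-targeting control and median/MAD z-scores, plus per-cell luciferase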
# Direction: total luciferase, z-score and total luciferase, % of control: higher = more reporter protein produced; luciferase per cell, z-score: higher = more reporter output per viable cell; viable cells, % of control: higher = more viable cells
# Active means: 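An siRNA counts as active if its total luciferase robust z-score exceeds 3; genes with two or more such siRNAs out of three were retested with fresh siRNAs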
# Meaning of the calls: active = raised luciferase; inactive = no rise
# Here is a random part of about 59,000 reagents. About 1,510 of them (2.6%) count as active. 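Calls use total luciferase alone and ignore viability, so some active siRNAs may act by altering cell number.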 Reagents against one gene are numbered here.
gene,reagent no.,"total luciferase, z-score","total luciferase, % of control","luciferase per cell, z-score","viable cells, % of control",Outcome
LRRC37BP1,1,-0.587,70.2,-0.785,96.5,inactive
LRRC37BP1,2,-0.293,76.1,-0.847,106,inactive
LRRC37BP1,3,1.61,114,1.65,82.5,inactive
DEFB129,1,-0.963,62.7,0.147,67.4,inactive
DEFB129,2,2.65,135,2.53,77.3,inactive
DEFB129,3,1.05,103,1.32,81.3,inactive
NPC1L1,1,2.69,135,1.53,101,inactive
NPC1L1,2,1.92,120,0.882,106,inactive
NPC1L1,3,0.000571,81.9,-0.234,97.3,inactive
BICDL2,1,-0.0778,80.3,-0.0804,91.7,inactive
BICDL2,2,0.0147,82.2,-0.354,101,inactive
BICDL2,3,-0.381,74.3,-0.0647,84.5,inactive
FBXO30,1,0.492,91.7,0.928,80.2,inactive
FBXO30,2,1.04,103,0.663,96.3,inactive
FBXO30,3,-0.61,69.8,-0.735,94.6,inactive
KIF2A,1,0.545,92.7,0.212,98,inactive
KIF2A,2,1.52,112,2.66,62.2,inactive
KIF2A,3,0.868,99.1,0.158,106,inactive
ANKLE2,1,-0.788,66.2,-1.21,102,inactive
ANKLE2,2,0.739,96.6,0.494,94.8,inactive
ANKLE2,3,0.301,87.9,-0.359,108,inactive
ATP5F1A,1,1.26,107,0.391,108,inactive
ATP5F1A,2,1.81,118,1.09,98.8,inactive
ATP5F1A,3,-0.357,74.8,-0.565,97,inactive
ACBD7,1,1.27,107,2.78,57.6,inactive
ACBD7,2,0.326,88.4,0.519,86.1,inactive
ACBD7,3,0.0707,83.3,-0.0434,94.1,inactive
CFL2,1,-0.845,65.1,-0.308,78.9,inactive
CFL2,2,0.218,86.2,0.0306,95.6,inactive
CFL2,3,0.0624,83.1,-0.288,100,inactive
PROZ,1,1.48,111,0.781,101,inactive
PROZ,2,1.07,103,0.682,96.4,inactive
PROZ,3,2.06,123,1.72,87.2,inactive
IL20RA,1,0.727,96.3,0.0942,105,inactive
IL20RA,2,-0.812,65.7,-0.614,86.4,inactive
IL20RA,3,-1.57,50.6,-1.13,76.2,inactive
LINC02843,1,-0.186,78.2,0.0747,85.7,inactive
LINC02843,2,3.95,161,2.92,83.2,active
LINC02843,3,0.671,95.2,0.567,91.7,inactive

Part of the list above, showing only “total luciferase, % of control”:
FBXO30 #1 = 91.7
FBXO30 #2 = 103
FBXO30 #3 = 69.8
KIF2A #1 = 92.7
KIF2A #2 = 112
KIF2A #3 = 99.1
ANKLE2 #1 = 66.2
ANKLE2 #2 = 96.6
ANKLE2 #3 = 87.9
ATP5F1A #1 = 107
ATP5F1A #2 = 118
ATP5F1A #3 = 74.8
ACBD7 #1 = 107

Continued:
gene,reagent no.,"total luciferase, z-score","total luciferase, % of control","luciferase per cell, z-score","viable cells, % of control",Outcome
RAN,1,-1.27,56.6,1.49,42.7,inactive
RAN,2,-1.15,59,1.82,40.9,inactive
RAN,3,-0.91,63.8,1.45,48.7,inactive
TUBB1,1,-0.64,69.2,-0.401,85.9,inactive
TUBB1,2,-1.48,52.4,-0.958,75.3,inactive
TUBB1,3,-1.69,48.2,-1.03,70.7,inactive
THUMPD3,1,0.782,97.4,-0.00849,109,inactive
THUMPD3,2,-0.991,62.2,-0.738,84.4,inactive
THUMPD3,3,-0.371,74.5,-0.348,91.3,inactive
CAVIN2,1,0.422,90.3,-0.0188,101,inactive
CAVIN2,2,-1.07,60.7,-1.73,107,inactive
CAVIN2,3,-0.271,76.5,-0.172,89.5,inactive
MIP,1,0.472,91.3,0.579,87.6,inactive
MIP,2,-1.76,47,-1.82,84.8,inactive
MIP,3,-0.481,72.3,-1.05,107,inactive
SPMIP2,1,-1.04,61.1,-0.852,85.5,inactive
SPMIP2,2,0.194,85.7,-0.277,103,inactive
SPMIP2,3,-1.06,60.9,-0.668,81.1,inactive
FAM9B,1,0.798,97.8,0.353,99.5,inactive
FAM9B,2,2.66,135,1.91,91,inactive
FAM9B,3,0.808,98,1.44,75,inactive
RGS11,1,-1.38,54.5,-1.4,88,inactive
RGS11,2,0.115,84.2,-0.251,100,inactive
RGS11,3,-0.0433,81,-0.482,103,inactive
KIF27,1,0.417,90.2,0.213,95.3,inactive
KIF27,2,0.723,96.3,0.817,86.8,inactive
KIF27,3,-1.2,58,-1.12,87.1,inactive
UQCRBP1,1,-0.338,75.2,-0.0957,86.1,inactive
UQCRBP1,2,0.71,96,0.956,83.4,inactive
UQCRBP1,3,-1.89,44.4,-2.36,92.3,inactive
RACGAP1,1,-0.635,69.3,-0.596,90.6,inactive
RACGAP1,2,0.289,87.6,0.151,94.1,inactive
RACGAP1,3,-0.484,72.3,0.479,71.2,inactive
LYPD4,1,1.3,108,0.372,109,inactive
LYPD4,2,-0.535,71.2,-0.356,87.4,inactive
LYPD4,3,-0.0148,81.6,0.0861,89.1,inactive
